These are yes or no findings as the source states them, for the method shown. For part of these data: In cells and extracts the contact can be indirect. Some entries that bind do so weakly or less than the wild type. For part of these data: Sequences can lack the tags named with a protein.

Test [1] deals with T1, RBBP6_(1-335), FLAG-tagged, purified (human) (UniProt Q7Z6E9).
T1 sequence: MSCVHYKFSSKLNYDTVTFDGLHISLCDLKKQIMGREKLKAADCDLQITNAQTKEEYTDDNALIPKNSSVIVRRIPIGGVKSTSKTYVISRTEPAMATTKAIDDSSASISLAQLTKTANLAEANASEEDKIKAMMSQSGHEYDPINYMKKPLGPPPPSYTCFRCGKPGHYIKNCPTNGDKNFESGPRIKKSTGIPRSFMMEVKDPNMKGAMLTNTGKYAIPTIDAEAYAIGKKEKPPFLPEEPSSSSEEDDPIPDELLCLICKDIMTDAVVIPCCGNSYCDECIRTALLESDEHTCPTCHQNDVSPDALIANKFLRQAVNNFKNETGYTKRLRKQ
The experiment in a line: cross-linking.

Test [2] has as its target T1, RBBP6_(1-335), FLAG-tagged, purified (human). The experiment in a line: cryo-EM structure.
Test [3] addresses T2, CPSF73 overexpressed in HEK cells (human) (UniProt Q9UKF6).
T2 sequence: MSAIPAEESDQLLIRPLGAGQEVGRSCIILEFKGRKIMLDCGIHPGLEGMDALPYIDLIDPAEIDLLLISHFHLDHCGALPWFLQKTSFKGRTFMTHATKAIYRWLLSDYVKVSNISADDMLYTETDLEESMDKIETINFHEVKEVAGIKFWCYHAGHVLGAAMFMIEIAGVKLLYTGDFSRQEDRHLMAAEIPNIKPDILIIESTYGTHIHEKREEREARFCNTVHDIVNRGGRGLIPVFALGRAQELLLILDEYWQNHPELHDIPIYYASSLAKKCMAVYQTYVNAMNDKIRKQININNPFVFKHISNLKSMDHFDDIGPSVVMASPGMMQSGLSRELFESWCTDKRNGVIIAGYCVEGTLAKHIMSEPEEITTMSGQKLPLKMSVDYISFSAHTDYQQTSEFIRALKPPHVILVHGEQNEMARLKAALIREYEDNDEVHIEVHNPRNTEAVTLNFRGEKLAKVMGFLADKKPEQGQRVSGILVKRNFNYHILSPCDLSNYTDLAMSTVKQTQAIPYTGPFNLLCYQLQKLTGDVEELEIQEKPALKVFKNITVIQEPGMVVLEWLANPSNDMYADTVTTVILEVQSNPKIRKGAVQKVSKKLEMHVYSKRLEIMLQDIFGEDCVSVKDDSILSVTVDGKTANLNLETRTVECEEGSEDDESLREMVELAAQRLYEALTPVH
The experiment in a line: pull-down.

B1: CPSF73, as subunit of the purified recombinant CPSF complex (enzyme, UniProt Q9UKF6 1-684)
chain: T2 sequence
B1: the binding entry in test [1] and in test [2] was “binds” each time.

B2: RBBP6_(1-335) overexpressed in HEK cells (domain or fragment, UniProt Q7Z6E9 1-335)
chain: T1 sequence
Consider B2, for which the binding entry in test [3] is “binds”.

Source of the values: paper doi:10.1101/2021.11.02.466878.
